{"source": "paper PMC8977021", "about": "“bZIP transcription factors PcYap1 and PcRsmA link oxidative stress response to secondary metabolism and development in Penicillium chrysogenum”", "key": {"PcYap1 + PcRsmA": {"test_system": "PcYap1 + PcRsmA", "experiment": "EMSA", "details": "both proteins, supershift, simultaneous binding to separate sites; LightShift binding buffer 1X, about 10% glycerol, 5 mM MgCl2, 20 fmol biotin probe, 10 ug protein, 20 uL, room temperature 20 min; 5% native PAGE in 0.5X TBE; recombinant protein; protein details: C-terminal c-myc-6xHis,C-terminal c-myc-6xHis; label: 3' biotin; probe letters rebuilt from the primers and the genome"}, "PcAtf21 del319-319": {"target": "PcAtf21 del319-319 (UniProt B6HLX5)", "experiment": "EMSA", "details": "LightShift binding buffer 1X, about 10% glycerol, 5 mM MgCl2, 20 fmol biotin probe, 10 ug protein, 20 uL, room temperature 20 min; 5% native PAGE in 0.5X TBE; recombinant protein; residues 1-318; protein details: C-terminal c-myc-6xHis; label: 3' biotin; probe letters rebuilt from the primers and the genome"}}, "note": "For some assays here: No signal at the amounts used counts as a negative. For some assays here: The exact form of at least one protein or probe is not confirmed."}
{"sequence": "TGTTTATGCTGAGACAACCTGGAGACATTATACGCTTGCAGCCCAGATGCTTACTGGATGGGGCCGCTGGAGCCAGTGTAAAATTAGTAACCGTATCTC (double strand) [upPta1]", "values": [{"measurement": "binding result", "setting": "PcYap1 + PcRsmA", "result": "binds"}]}
{"sequence": "ATGGAGATTGGCCAGGTCAGCCATATATACCCTGCAATGGCAGACCAATGCAGCAGGCCCAGTATAAGGAATTCCCCTCGAGCTTGTCTGTGATTGCGTTTTTTCTAACACTTGTTGTTGCATCCGATCCGTCCCTACCAATTATTGGTCATTGACAGAGATGACTCAACTGAAGCCACCGAACGGAACCACGCCGAT (double strand) [probe 1]", "values": [{"measurement": "binding result", "setting": "PcAtf21 del319-319", "result": "no binding"}]}
{"sequence": "AACGACGGCGATGTTCCAAGGTAAACCGGCACGTAGAAAATGTCCGGACCACCTTGGCTCTCGTTGCAGCGTGTTGAATCTTCAGCCACCATAAGTCGATAGCATCCGGTTAGAGTGCAACGTGGGTCTGTCTCATTCTTCTCGGTTCTTGGCACCAGAATCGGGCGTAGTTTGCCCACTGCCAAG (double strand) [probe 3]", "values": [{"measurement": "binding result", "setting": "PcAtf21 del319-319", "result": "no binding"}]}
{"sequence": "ATGTCTCCAGGTTGTCTCAGCATAAACACCCCGCCCCCGCTCAGGCACACAGGAAGAGAGCTCAGGTCGTTTCCATTGCGTCCATACTCTTCACTCATTGTCATCTGCAGGAGAACTTCCCCTGTCCCTTTGCCAAGCCCTCTCTTCGTCGTTGTCCACGCCTTCAAGTTTTCACCATTATTTTTCTAGACACCATGGCTTCC (double strand) [probe 6]", "values": [{"measurement": "binding result", "setting": "PcAtf21 del319-319", "result": "no binding"}]}
{"sequence": "TTGCCCACTGCCAAGTCGCGGGGCCGCTTGGCTGTCCTTGTGGTGGGATTTCCCGATGCAACATGCAGATACATGTAGTCGACAGTTGACAGAGCCAATGGCATCGGATCTGCCGTAGACCGTGCTAGACGAAAGTCTCCATCTTGTCTGCGGGCAGTGCTTCAGTCGCCCAGATTCTCGATGGAGATTGGCCAG (double strand) [probe 2]", "values": [{"measurement": "binding result", "setting": "PcAtf21 del319-319", "result": "no binding"}]}
